Results are given in words; binding and its absence hold for the method and conditions named. Some binding calls cover weakened binding; strength is not graded here.

Sequences of proteins named here, by UniProt entry; tags and fusion partners are left off. Residues count along the entry.
UniProt P05067, residues 671-711: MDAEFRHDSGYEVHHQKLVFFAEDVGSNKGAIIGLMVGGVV

Experiment [1] has as its target Zn2+-stabilised Ab40 oligomers (UniProt P05067). As to the kind of experiment: ELISA with immobilised DesAbs and Ab40 oligomers in solution, compared with the ANS assay. In general terms: An ELISA detects its analyte on a solid surface through an enzyme-linked reagent.
Experiment [2] shares this target. Description: dot blot, DesAbs spotted on nitrocellulose, incubated with Ab40 oligomers, revealed with 6E10.

B1: DesAb-O (VHH)
VHH: EVQLVESGGGLVQPGGSLRLSCAASGFNIKDTYIGWVRRAPGKGEEWVASIYPTNGYTRYADSVKGRFTISADTSKNTAYLQMNSLRAEDTAVYYCAAGSESAFGRAEEEAAAWGQGTLVTVSS
Regarding B1, the binding entry in experiment [1] and in experiment [2] was “binds” each time.

These data come from patent WO2021032966A1.
